Paper PMC10988808
Results are given in words; binding and its absence hold for the method and conditions named. In cells and extracts the contact can be indirect. Some entries that bind do so weakly or less than the wild type.

The chains behind the UniProt entries cited, without tags or fusion partners.
UniProt P46937: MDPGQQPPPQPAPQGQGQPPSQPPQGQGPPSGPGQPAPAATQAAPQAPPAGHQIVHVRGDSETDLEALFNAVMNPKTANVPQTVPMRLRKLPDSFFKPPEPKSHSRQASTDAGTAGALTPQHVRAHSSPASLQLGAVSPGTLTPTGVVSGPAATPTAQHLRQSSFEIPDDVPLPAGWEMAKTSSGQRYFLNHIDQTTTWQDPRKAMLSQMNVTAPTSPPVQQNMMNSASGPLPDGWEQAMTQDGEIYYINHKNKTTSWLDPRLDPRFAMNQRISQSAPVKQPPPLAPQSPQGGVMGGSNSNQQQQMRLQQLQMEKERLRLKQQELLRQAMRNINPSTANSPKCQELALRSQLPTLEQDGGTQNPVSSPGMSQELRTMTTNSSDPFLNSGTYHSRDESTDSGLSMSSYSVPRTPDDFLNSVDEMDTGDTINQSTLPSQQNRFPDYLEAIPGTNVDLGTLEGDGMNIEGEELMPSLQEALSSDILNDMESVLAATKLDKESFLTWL

B1: CCDC25 (protein, UniProt Q86WR0 1-208)
chain: MVFYFTSSSVNSSAYTIYMGKDKYENEDLIKHGWPEDIWFHVDKLSSAHVYLRLHKGENIEDIPKEVLMDCAHLVKANSIQGCKMNNVNVVYTPWSNLKKTADMDVGQIGFHRQKDVKIVTVEKKVNEILNRLEKTKVERFPDLAAEKECRDREERNEKKAQIQEMKKREKEEMKKKREMDELRSYSSLMKVENMSSNQDGNDSDEFM

How the values were obtained:
CCDC25 = target: T1, CCDC25 (UniProt Q86WR0); assay: co-IP; 293T cell lysates prepared by weak RIPA lysis; immunoprecipitated by CCDC25 antibody, IgG as negative control
T1 sequence: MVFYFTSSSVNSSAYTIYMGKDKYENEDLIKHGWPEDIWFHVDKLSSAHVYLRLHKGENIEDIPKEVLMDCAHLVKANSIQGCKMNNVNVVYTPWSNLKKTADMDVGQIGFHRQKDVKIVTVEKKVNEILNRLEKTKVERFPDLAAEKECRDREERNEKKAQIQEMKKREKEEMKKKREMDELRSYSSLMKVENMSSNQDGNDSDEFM

YAP1-Flag = YAP1-Flag (UniProt P46937); assay: co-IP; 293T cell lysates prepared by weak RIPA lysis; immunoprecipitated by YAP1-Flag, IgG as negative control; with and without overexpression of CCDC25

| Molecule | binding (CCDC25) | binding (YAP1-Flag) |
| --- | --- | --- |
| YAP (from UniProt P46937 1-504) | binds |  |
| B1 |  | binds |
